Values quoted from earlier work in patent US4228124A, “Fumigating method and apparatus” (priority 1979, dated 1980).
For at least one compound, name, drawing or mass did not settle the structure.

Conditions: cited from earlier work

Structure (SMILES): Cc1ccc(S(=O)(=O)NN)cc1S(=O)(=O)NN [2,4-TSH, 2,4-bis-(azosulfonyl) toluene]
- Blowing temp.: 108-109 °C
